Source: patent publication US20160038516A1, “COMBINATION CANCER THERAPY USING BISPHOSPHONATES AND ANTI-EGFR AGENTS” (Mone Zaidi Consulting, Inc., priority 2012, published 2016)
Where two headings read alike, the source gives them in different places. At least one structure is not confirmed: it was looked up by name or label, or the drawing left a doubt.

How the values were obtained:
recombinant EGFR = recombinant EGFR (Homo sapiens, UniProt P00533); assay: Cell-free in vitro assay of EGFR phosphorylation after ATP (Western, Tyr1045, Tyr1068, Tyr1173); type: biochemical
HCC827 cells [1] = assay: Colony formation, HCC827; type: cell-based
Method: (§1) To validate this, we evaluated the cellular effects of bisphosphonates in EGFR-negative and EGFR-positive cancer cell lines. Mutated cancer cell lines, namely H520, H1666, H3255, HC827, A549, H1650, MCF-7, Caco-2, SW620, and SW480, were grown using standard protocols, and exposed to bisphosphonates. Thereafter, the cells were subject to the MTT assay to assess viability using a commercial kit. Additionally, in certain instances, annexin V staining was performed using a previously described protocol. Quantitative PCR (qPCR) for BCL, Bax, survivin, as well as for the thirteen bisphosphonate signature genes (FIG. 1) was carried out. Protein extracts were subject to SDS-PAGE followed by Western immunoblotting using antibodies to PARP, Akt (total and phosphorylated), Erk (total and phosphorylated), cyclin D1, cyclin B1, PCNA, and GAPDH (Santa Cruz, USA). Flow cytometry and colony forming assays were also performed.
Based on this prediction, and the common occurrence of these mutations in lung cancer patients, we examined the effect of available approved bisphosphonates on lung cancer cell lines that are driven by the L858R (H3255) or del746-750 (HCC827) mutation (FIGS. 6 and 7).

[2] = tested on: EGFR-expressing colon cells (SW480); assay: Colony formation (clonogenic assay), SW480; type: cell-based
Method: as §1

[3] = tested on: EGFR negative (SW620) colon cancer cell line; assay: Colony formation (clonogenic assay), SW620; type: cell-based
Method: as §1

[4] = tested on: H1975 (L858R/T790M) lung adenocarcinoma cell line; assay: Colony formation, H1975; type: cell-based
Method: To test this hypothesis, colony formation and cell viability assays were carried out using a L858R/T790M-derived lung adenocarcinoma cell line, H1975.

MDA-MB-231 cells = assay: Colony formation, MDA-MB-231; type: cell-based; conditions: up to 20 μM ZA, data not shown
HCC827 cells [5] = assay: FACS analysis and Western blotting for cell cycle and apoptosis, HCC827; type: cell-based
Method: as §1

H3255 cells = assay: FACS analysis and Western blotting for cell cycle and apoptosis, H3255; type: cell-based
A549 cells = assay: FACS analysis and Western blotting for cell cycle and apoptosis, A549; type: cell-based
[6] = tested on: H1975 (L858R/T790M) cells; assay: Western analysis of EGFR signaling, apoptosis and cell cycle proteins, H1975; type: cell-based
[7] = tested on: EGFR-expressing (MDA-MB-231) breast cancer cell line; assay: FACS cell cycle profile (sub-G1), MDA-MB-231; type: cell-based
[8] = tested on: HER2-expressing (BT474) breast cancer cell line; assay: FACS cell cycle profile (sub-G1), BT474; type: cell-based
[9] = tested on: non-EGFR, non-HER2-expressing (MDA-MB-453) breast cancer cell line; assay: FACS cell cycle profile (sub-G1), MDA-MB-453; type: cell-based
SW480 = assay: Western analysis of cyclin D1, SW480; type: cell-based; conditions: data not shown
SW620 = assay: Western analysis of cyclin D1, SW620; type: cell-based; conditions: data not shown
[10] = tested on: farnesyl diphosphate synthase (FPPS); assay: Western blot of unprenylated Rap-1α accumulation as evidence of FPPS inhibition; type: cell-based; conditions: to an equal extent in H3255, HCC827 and A549 cells
recombinant Her2 = molecular target: T1, recombinant Her2 (Homo sapiens, UniProt P04626); assay: Cell-free in vitro kinase assay using recombinant Her2 (Kinase-Glo); type: biochemical; conditions: incubated 30 minutes with 50 ng recombinant Her2
T1 construct: purchased GENWAY
Method: We also performed a cell-free in vitro kinase assay to determine if bisphosphonates could inhibit Her2 activity. Briefly, Ert, ZA, Ris, MA, or Til (doses as shown in FIG. 28A) were incubated for 30 minutes with 50 ng recombinant Her2 or EGFR^L858R protein (GENWAY) at 4° C. and tyrosine kinase activity was measured. Following addition of assay buffer (SIGMA) which contained the poly(Glu, Tyr) (4:1) substrate and ATP, the kinase reaction was allowed to proceed for 30 minutes at 30° C. An equal volume of Kinase-Glo substrate (PROMEGA) was then added, and luminescence read manually (TD-20/20, TURNER DESIGN).

O=P(O)(O)C(O)(Cn1ccnc1)P(=O)(O)O [zoledronic acid]
activation (phosphorylation) of recombinant EGFR (recombinant EGFR; 100 μM, Tyr1045, Tyr1068 and Tyr1173): inhibited the activation of recombinant EGFR in vitro
reversal of EGFR inhibition in high [Mg2+] (recombinant EGFR; [Mg2+] 8 mM): not reversed
colony formation (HCC827 cells [1]): marked concentration-dependent inhibition of colony formation
colony formation [2]: reduced colony formation
colony formation [3]: had no effect
colony formation [4]: inhibited colony formation
colony formation (MDA-MB-231 cells): inhibition of colony formation
cell cycle and apoptosis (HCC827 cells [5]): primarily caused cell cycle arrest
cell cycle and apoptosis (HCC827 cells [5]; listed as Zoledronic acid): arrested growth
apoptosis (H3255 cells): increased apoptosis
apoptosis and PARP expression (A549 cells): apoptosis and increased PARP expression only at the highest, 80 μM
apoptosis and PARP expression (A549 cells; listed as Zoledronic acid): did not have an effect
EGFR autophosphorylation [6]: reduction in EGFR autophosphorylation
apoptosis (PARP expression, Akt phosphorylation) [6]: stimulation of apoptosis
expression of cell cycle proteins [6]: minimal changes
sub-G1 fraction (apoptosis) [7]: increased the sub-G1 fractions
sub-G1 fraction (apoptosis) [8]: increased the sub-G1 fractions
sub-G1 fraction (apoptosis) [9]: not
cell cycle arrest (cyclin D1 protein) (SW480): induces cell cycle arrest
cell cycle arrest (cyclin D1 protein) (SW620): not
accumulation of unprenylated Rab1 [10]: caused the accumulation of unprenylated Rab1
Her2 tyrosine kinase activity (recombinant Her2): inhibit the tyrosine kinase activity of Her2
